Data published in PMC3798263.

Target: T1, HOS5-FLAG from transgenic Arabidopsis lines (Arabidopsis) (UniProt Q8W4B1)
T1 sequence: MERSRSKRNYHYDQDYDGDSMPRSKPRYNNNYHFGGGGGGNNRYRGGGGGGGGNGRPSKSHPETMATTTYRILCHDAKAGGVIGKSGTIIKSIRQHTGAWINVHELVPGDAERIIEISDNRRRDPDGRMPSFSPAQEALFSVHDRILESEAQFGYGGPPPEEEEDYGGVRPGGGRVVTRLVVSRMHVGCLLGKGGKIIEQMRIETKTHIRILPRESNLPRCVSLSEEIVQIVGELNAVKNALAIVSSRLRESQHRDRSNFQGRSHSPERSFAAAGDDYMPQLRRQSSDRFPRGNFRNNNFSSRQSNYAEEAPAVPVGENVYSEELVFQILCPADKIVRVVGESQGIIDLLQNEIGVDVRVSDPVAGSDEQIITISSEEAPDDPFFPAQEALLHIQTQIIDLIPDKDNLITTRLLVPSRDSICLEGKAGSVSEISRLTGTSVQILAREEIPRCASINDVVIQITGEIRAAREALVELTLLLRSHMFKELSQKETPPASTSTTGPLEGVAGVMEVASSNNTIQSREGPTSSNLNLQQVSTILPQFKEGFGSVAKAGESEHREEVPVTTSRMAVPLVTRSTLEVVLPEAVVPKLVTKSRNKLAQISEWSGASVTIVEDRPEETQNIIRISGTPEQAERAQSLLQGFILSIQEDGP
Assay: affinity purification with mass spectrometry; protein extracts of HOS5-FLAG-tagged Arabidopsis lines (Col-0 as control), anti-FLAG M2 beads, lysis buffer with 100 mM KCl, 10 mM HEPES, 0.1% NP-40; elution with 3x FLAG peptide, trypsin digestion, mass spectrometry

B1: RS41, endogenous in Arabidopsis (protein, UniProt P92966 1-356)
chain: MKPVFCGNFEYDARESDLERLFRKYGKVERVDMKAGFAFVYMEDERDAEDAIRALDRFEYGRTGRRLRVEWTKNDRGGAGRSGGSRRSSSGLRPSKTLFVINFDAQNTRTRDLERHFEPYGKIVNVRIRRNFAFIQYEAQEDATRALDATNSSKLMDKVISVEYAVKDDDSRGNGYSPERRRDRSPDRRRRSPSPYRRERGSPDYGRGASPVAHKRERTSPDYGRGRRSPSPYKRARLSPDYKRDDRRRERVASPENGAVRNRSPRKGRGESRSPPPYEKRRESRSPPPYEKRRESRSPPPYEKRRERSRSRSKSSPENGQVESPGQIMEVEAGRGYDGADSPIRESPSRSPPAEE
**Q.** With B1 as the binder, how does the binding read?
**A.** The binding was “binds”.

No constants are given. Whether binding was seen depends on the method and setting. In cells and extracts the contact can be indirect. A yes stands for co-enrichment or nearness to the bait. Other partners may have been found. Tags and fused reporters may be left off the sequences shown.
